Experiment [1] has as its target T1, MY-TOP1MT (human mitochondrial topoisomerase I with YFP appended to its N-terminus and a mitochondrial targeting sequence attached N-terminally to YFP) (human) (UniProt Q969P6).
T1 sequence: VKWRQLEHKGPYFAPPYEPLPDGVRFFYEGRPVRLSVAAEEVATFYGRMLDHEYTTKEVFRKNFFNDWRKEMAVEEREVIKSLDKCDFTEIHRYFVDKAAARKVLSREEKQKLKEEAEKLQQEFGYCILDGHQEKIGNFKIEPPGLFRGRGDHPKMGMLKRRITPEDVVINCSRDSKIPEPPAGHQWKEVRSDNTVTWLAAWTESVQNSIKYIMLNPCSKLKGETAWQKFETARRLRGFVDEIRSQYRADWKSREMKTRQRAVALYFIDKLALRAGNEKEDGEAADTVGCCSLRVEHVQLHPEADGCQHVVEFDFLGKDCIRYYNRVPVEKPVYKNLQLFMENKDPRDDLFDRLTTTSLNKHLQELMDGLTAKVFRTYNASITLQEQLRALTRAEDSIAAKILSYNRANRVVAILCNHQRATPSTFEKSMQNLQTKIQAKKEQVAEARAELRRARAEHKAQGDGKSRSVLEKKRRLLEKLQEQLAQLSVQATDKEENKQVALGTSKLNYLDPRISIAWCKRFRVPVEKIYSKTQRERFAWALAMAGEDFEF
The experiment is described as follows: co-IP; extracts of isolated mitochondria of HT1080 cells incubated (30 min, 4°C) with antibodies (3 µg) against POLRMT or YFP; immune complexes isolated with µMACS Protein A/G microBeads or µMACS GFP-tagged Protein Isolation Kit; probed with antibodies against POLRMT, TFAM, YFP or TOP1MT.

By UniProt entry, the sequences of proteins in these tests, tags left out. Residues count along the entry.
UniProt O00411, residues 42-1230: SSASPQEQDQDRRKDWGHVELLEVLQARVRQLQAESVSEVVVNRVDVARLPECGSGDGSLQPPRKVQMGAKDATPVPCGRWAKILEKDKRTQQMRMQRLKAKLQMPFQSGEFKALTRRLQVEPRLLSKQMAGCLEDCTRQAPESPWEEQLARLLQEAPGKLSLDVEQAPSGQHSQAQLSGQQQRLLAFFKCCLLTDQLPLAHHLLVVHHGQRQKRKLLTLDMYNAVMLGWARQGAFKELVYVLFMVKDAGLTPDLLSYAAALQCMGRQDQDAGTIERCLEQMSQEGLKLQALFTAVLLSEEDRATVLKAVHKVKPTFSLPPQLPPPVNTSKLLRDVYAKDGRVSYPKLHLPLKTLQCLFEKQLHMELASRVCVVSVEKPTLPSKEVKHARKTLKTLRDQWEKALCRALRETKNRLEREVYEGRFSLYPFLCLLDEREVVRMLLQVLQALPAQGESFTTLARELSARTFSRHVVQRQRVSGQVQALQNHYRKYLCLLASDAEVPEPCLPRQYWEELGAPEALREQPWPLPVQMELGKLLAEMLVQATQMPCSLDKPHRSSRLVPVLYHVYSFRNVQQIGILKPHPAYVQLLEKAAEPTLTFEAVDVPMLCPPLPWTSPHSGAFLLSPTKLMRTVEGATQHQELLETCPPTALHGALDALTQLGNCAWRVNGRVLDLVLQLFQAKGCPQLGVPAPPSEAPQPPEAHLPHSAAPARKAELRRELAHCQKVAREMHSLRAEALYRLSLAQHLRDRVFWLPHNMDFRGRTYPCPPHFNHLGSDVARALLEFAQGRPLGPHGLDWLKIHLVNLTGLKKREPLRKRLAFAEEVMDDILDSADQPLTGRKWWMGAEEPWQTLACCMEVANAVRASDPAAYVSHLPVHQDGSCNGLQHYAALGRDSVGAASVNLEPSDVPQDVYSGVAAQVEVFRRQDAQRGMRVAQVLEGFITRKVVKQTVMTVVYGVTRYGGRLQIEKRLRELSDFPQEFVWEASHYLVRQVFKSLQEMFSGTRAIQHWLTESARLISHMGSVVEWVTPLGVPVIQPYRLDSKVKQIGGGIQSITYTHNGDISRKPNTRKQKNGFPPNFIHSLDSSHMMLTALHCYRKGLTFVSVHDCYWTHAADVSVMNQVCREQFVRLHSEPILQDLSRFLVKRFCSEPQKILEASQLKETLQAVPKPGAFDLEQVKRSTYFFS

Experiment [2] deals with mitochondrial RNA polymerase (POLRMT) (human (endogenous in HT1080)) (UniProt O00411). The description is as above.

We go through three molecules from PMC3834834.

No constants are given. Whether binding was seen depends on the method and setting. In cells and extracts the contact can be indirect. Some results given as binding are weak or reduced against the parent protein; the word gives no strength. Where a sequence is shown, tags or fusion partners need not be part of it.

B1: mitochondrial transcription factor A (TFAM) (protein, UniProt Q00059 43-246)
chain: SSVLASCPKKPVSSYLRFSKEQLPIFKAQNPDAKTTELIRRIAQRWRELPDSKKKIYQDAYRAEWQVYKEEISRFKEQLTPSQIMSLEKEIMDKHLKRKAMTKKKELTLLGKPKRPRSAYNVYVAERFQEAKGDSPQEKLKTVKENWKNLSDSEKELYIQHAKEDETRYHNEMKSWEEQMIEVGRKDLLRRTIKKQRKYGAEEC
For B1, in experiment [1], the binding entry is on record as “no binding”.

B2: MY-TOP1MT (human mitochondrial topoisomerase I with YFP appended to its N-terminus and a mitochondrial targeting sequence attached N-terminally to YFP) (enzyme, UniProt Q969P6 51-601)
chain: VKWRQLEHKGPYFAPPYEPLPDGVRFFYEGRPVRLSVAAEEVATFYGRMLDHEYTTKEVFRKNFFNDWRKEMAVEEREVIKSLDKCDFTEIHRYFVDKAAARKVLSREEKQKLKEEAEKLQQEFGYCILDGHQEKIGNFKIEPPGLFRGRGDHPKMGMLKRRITPEDVVINCSRDSKIPEPPAGHQWKEVRSDNTVTWLAAWTESVQNSIKYIMLNPCSKLKGETAWQKFETARRLRGFVDEIRSQYRADWKSREMKTRQRAVALYFIDKLALRAGNEKEDGEAADTVGCCSLRVEHVQLHPEADGCQHVVEFDFLGKDCIRYYNRVPVEKPVYKNLQLFMENKDPRDDLFDRLTTTSLNKHLQELMDGLTAKVFRTYNASITLQEQLRALTRAEDSIAAKILSYNRANRVVAILCNHQRATPSTFEKSMQNLQTKIQAKKEQVAEARAELRRARAEHKAQGDGKSRSVLEKKRRLLEKLQEQLAQLSVQATDKEENKQVALGTSKLNYLDPRISIAWCKRFRVPVEKIYSKTQRERFAWALAMAGEDFEF
On to B2, for which, in experiment [2], the binding entry is reported as “binds”.

B3: MY-TOP1MT^Y559F (inactive Y559F mutant of human mitochondrial topoisomerase I with N-terminal MTS and YFP) (enzyme, UniProt Q969P6 51-601)
chain: VKWRQLEHKGPYFAPPYEPLPDGVRFFYEGRPVRLSVAAEEVATFYGRMLDHEYTTKEVFRKNFFNDWRKEMAVEEREVIKSLDKCDFTEIHRYFVDKAAARKVLSREEKQKLKEEAEKLQQEFGYCILDGHQEKIGNFKIEPPGLFRGRGDHPKMGMLKRRITPEDVVINCSRDSKIPEPPAGHQWKEVRSDNTVTWLAAWTESVQNSIKYIMLNPCSKLKGETAWQKFETARRLRGFVDEIRSQYRADWKSREMKTRQRAVALYFIDKLALRAGNEKEDGEAADTVGCCSLRVEHVQLHPEADGCQHVVEFDFLGKDCIRYYNRVPVEKPVYKNLQLFMENKDPRDDLFDRLTTTSLNKHLQELMDGLTAKVFRTYNASITLQEQLRALTRAEDSIAAKILSYNRANRVVAILCNHQRATPSTFEKSMQNLQTKIQAKKEQVAEARAELRRARAEHKAQGDGKSRSVLEKKRRLLEKLQEQLAQLSVQATDKEENKQVALGTSKLNFLDPRISIAWCKRFRVPVEKIYSKTQRERFAWALAMAGEDFEF
B3: the binding entry in experiment [2] is “binds”.
